From PubChem BioAssay AID540276 (National Center for Advancing Translational Sciences (NCATS), 2011)
About 5,400 (1.8%) of roughly 300,000 compounds were called active. Inconclusive results, whose numbers are uncertain, are shown with a selection of clear calls. The call rests on the fitted dose curve; tested in HEK293 cells. Potencies of inconclusive entries are doubtful fits and often do not repeat.

Assay: qHTS for inhibitors of binding or entry into cells for Marburg Virus
Settings: Marburg virus pseudotyped entry inhibition, cell reporter; series mostly up to 37.8 µM
Potency means the concentration at half of the fitted maximal effect.

Q: For COc1ccccc1NS(=O)(=O)c1ccc2c(c1)CCN2C(=O)CCC(=O)O, which Potency is on record?
A: inactive

Q: Which Potency does the source give for O=C(NCc1cccnc1)c1cccc(S(=O)(=O)N2CCCC2)c1 here?
A: inactive

Q: For Cc1cc(OCC(O)CN2C(C)CCCC2C)ccc1C(C)C (stereo not given), which Potency is on record?
A: inconclusive: 7.08 µM [inhibitor, full curve, poor fit]

Q: With CC(NC(=S)Nc1ccccc1Cl)C(c1cccs1)N1CCCC1 (stereo not given) as the compound, how does the Potency read?
A: inconclusive: 35.5 µM [inhibitor, partial curve, poor fit]

Q: For Cc1nc2c(-c3ccccc3)c(C)nn2c(N)c1-c1ccccc1, which Potency is on record?
A: inconclusive: 4.47 µM [activator, partial curve, poor fit]

Q: For O=C(Nc1ccc(C(=O)Oc2ccccc2)c(O)c1)c1ccccc1, which Potency is on record?
A: inconclusive: 35.5 µM [inhibitor, single point]

Q: With CSc1ccc(/C=N/NC(=O)c2cc(O)cc(O)c2)cc1 as the compound, how does the Potency read?
A: inconclusive: 35.5 µM [inhibitor, single point]

Q: With CCc1ccc(NC(=S)N2CCN(c3cccc(C(F)(F)F)c3)CC2)cc1 as the compound, how does the Potency read?
A: inconclusive: 29.1 µM [inhibitor, single point]

Q: With COc1ccc(CCN2C(=O)CCC2(C)C(=O)NCc2cccnc2)cc1OC (stereo not given) as the compound, how does the Potency read?
A: inactive

Q: Which Potency does the source give for O=c1[nH]c(-c2ccccn2)cc2ccccc12 here?
A: inconclusive: 2.82 µM [activator, partial curve, poor fit]

Q: For CN(Cc1ccc(F)cc1)C(=O)CCc1nnc(-c2ccccc2)o1, which Potency is on record?
A: inconclusive: 10 µM [activator, partial curve, poor fit]

Q: For Cc1ccn2cc(C(=O)NCc3ccco3)nc2c1, which Potency is on record?
A: inconclusive: 2.82 µM [activator, full curve, poor fit]

Q: With CCCc1nnc(NC(=O)c2c(O)c3c([nH]c2=O)CCCC3)s1 as the compound, how does the Potency read?
A: inconclusive: 6.51 µM [inhibitor, single point]

Q: Which Potency does the source give for O=C(CN1CCN(CC(=O)Nc2ccccc2Cl)CC1)NCC1(N2CCOCC2)CCCCC1 here?
A: inconclusive: 6.31 µM [inhibitor, single point]

Q: Which Potency does the source give for Cc1cc(C)n2nc(CNC(=O)c3cccc(N(C)C)c3)nc2n1 here?
A: inactive

Q: Which Potency does the source give for OC(c1nc2ccc(F)cc2[nH]1)C(O)c1nc2ccc(F)cc2[nH]1 (stereo not given) here?
A: inconclusive: 4.47 µM [inhibitor, partial curve, poor fit]

Q: Which Potency does the source give for CCOC(=O)c1nc(NCc2ccccc2)sc1C here?
A: inactive

Q: Which Potency does the source give for CCOC(=O)c1cc(-c2ccc(OC)cc2F)nc2c1c(C)nn2CCC#N here?
A: inconclusive: 18.3 µM [inhibitor, single point]

Q: For Cc1cc(NC(=O)CCc2ccc(S(=O)(=O)N3CCOCC3)cc2)n(-c2ccccc2)n1, which Potency is on record?
A: inconclusive: 8.91 µM [inhibitor, partial curve, poor fit]

Q: For Cc1ccc(S(=O)(=O)Nc2ccc(Br)cc2/C=N/n2cnnc2)cc1, which Potency is on record?
A: inconclusive: 18.3 µM [inhibitor, single point]

Q: With Cc1ccnn2cc3c(=O)n(C)c(=O)n(C)c3c12 as the compound, how does the Potency read?
A: inactive

Q: For Cc1cccc(OCC2=NS(=O)(=O)c3ccccc3N2)c1, which Potency is on record?
A: inactive

Q: With N=C(N)SCc1ccc(Cl)cc1Cl as the compound, how does the Potency read?
A: inconclusive: 32.6 µM [inhibitor, single point]

Q: For Cc1cccc(OCC(=O)Nc2ccc3c(c2)OCCO3)c1, which Potency is on record?
A: inactive

Q: For Cc1cc(NC(=O)Nc2ccc(F)cc2)no1, which Potency is on record?
A: inactive

Q: Which Potency does the source give for CC1=NOC(=O)/C1=C\c1ccc(-c2cccc(Cl)c2)o1 here?
A: inconclusive: 35.5 µM [inhibitor, single point]

Q: For O=C(Nc1cc(S(=O)(=O)Nc2ccc(Cl)cc2)ccc1N1CCCCC1)c1ccc(F)cc1, which Potency is on record?
A: inconclusive: 10 µM [inhibitor, partial curve, poor fit]

Q: For CCOC(=O)CNC(=O)CSc1nnc(-c2ccco2)n1Cc1ccco1, which Potency is on record?
A: inactive

Q: With CC(NCc1ccc2c(c1)n(C)c(=O)n2C)c1ccccc1 (stereo not given) as the compound, how does the Potency read?
A: inactive

Q: Which Potency does the source give for COc1cc(NC(=O)CSc2cc(=O)n(C)c3ccccc23)cc(OC)c1OC here?
A: inconclusive: 17.8 µM [activator, single point]

Q: Which Potency does the source give for CC(=O)c1cccc(NC(=O)NNC(=O)CCC(=O)Nc2ccc(C)c(C)c2)c1 here?
A: inactive

Q: For O=C(Cn1c2c(c(-c3ccccc3Cl)cc1=O)CCC2)NCC1CCCO1 (stereo not given), which Potency is on record?
A: inconclusive: 35.5 µM [inhibitor, single point]

Q: Which Potency does the source give for CCOC(=O)c1ccc(Nc2ncccc2[N+](=O)[O-])cc1 here?
A: inconclusive: 0.631 µM [activator, single point]

Q: With CN(C)S(=O)(=O)c1ccc(/C(O)=C2/C(=O)C(=O)N(Cc3cccnc3)C2c2ccncc2)cc1 (stereo not given) as the compound, how does the Potency read?
A: inactive

Q: With CCOC(=O)c1cccc(NC(=O)c2ccc(N(C)C)cc2)c1 as the compound, how does the Potency read?
A: inconclusive: 2 µM [inhibitor, full curve, poor fit]

Q: Which Potency does the source give for COc1cccc(-c2cc(C(=O)NCc3ccccc3)no2)c1 here?
A: inactive

Q: For CCOc1ccc(N(CC(=O)Nc2c(C)n(C)n(-c3ccccc3)c2=O)S(=O)(=O)c2ccccc2)cc1, which Potency is on record?
A: inconclusive: 2.82 µM [activator, partial curve, poor fit]

Q: Which Potency does the source give for CSCCC(NC(=O)c1ccc(Cl)cc1)C(=O)NC(C)(C)C (stereo not given) here?
A: inconclusive: 23.1 µM [activator, single point]

Q: Which Potency does the source give for CN1CCC(CC(C(=O)N2CCCC2)(c2ccccc2)c2ccccc2)C1 (stereo not given) here?
A: inconclusive: 11.2 µM [inhibitor, partial curve, poor fit]

Q: With COc1cc(C)c(/C=C(\C#N)C(=O)Nc2cccc(C)c2)cc1C(C)C as the compound, how does the Potency read?
A: inconclusive: 0.562 µM [inhibitor, single point]

Q: Which Potency does the source give for CCCc1nc2c(c(=O)c3ccccc3n2C)c(=O)n1C1CCCCCC1 here?
A: inconclusive: 3.98 µM [inhibitor, partial curve, poor fit]

Q: Which Potency does the source give for O=C(N/N=C/c1ccoc1)c1cc(O)cc(O)c1 here?
A: inactive

Q: With CCN(c1ccccc1)S(=O)(=O)c1ccc(C(=O)NCC(c2cccs2)N(C)C)cc1 (stereo not given) as the compound, how does the Potency read?
A: inconclusive: 35.5 µM [inhibitor, single point]

Q: For CN(Cc1cnccn1)C(=O)CC1C(=O)NCCN1Cc1cccc(F)c1 (stereo not given), which Potency is on record?
A: inactive

Q: For COc1ccc(NC2=CC(=O)CC(c3ccccc3)C2)cc1 (stereo not given), which Potency is on record?
A: inactive

Q: For COc1ccc(-c2[nH]ncc2CN(CCO)Cc2cccs2)c(F)c1, which Potency is on record?
A: inconclusive: 35.5 µM [inhibitor, single point]

Q: For O=C(NC1CC1)c1cc2cc(Br)ccc2s1, which Potency is on record?
A: inactive

Q: For Cc1nc(/N=C(\N)NC(=O)c2ccccc2)nc2ccccc12, which Potency is on record?
A: inconclusive: 20.6 µM [inhibitor, single point]

Q: Which Potency does the source give for O=C(NNC(=O)c1cc(-c2ccncc2)nc2ccccc12)Nc1ccc(F)cc1 here?
A: inactive

Q: Which Potency does the source give for CC(=O)c1ccc(OCC(O)CN2CCN(S(=O)(=O)c3c(C)c(C)cc(C)c3C)CC2)cc1 (stereo not given) here?
A: inconclusive: 22.4 µM [inhibitor, single point]

Q: Which Potency does the source give for N#Cc1c[nH]n2c(NC3CCCC3)c(-c3cccc(Br)c3)nc12 here?
A: inconclusive: 7.94 µM [inhibitor, partial curve, poor fit]

Q: For CN(C)S(=O)(=O)c1cccc(C(=O)NC(=S)N(CCC#N)Cc2cccnc2)c1, which Potency is on record?
A: inconclusive: 2.51 µM [activator, partial curve, poor fit]

Q: With CC(=O)Oc1ccc(C(=O)Nc2ccc(S(=O)(=O)NCC3CCCO3)cc2)cc1 (stereo not given) as the compound, how does the Potency read?
A: inconclusive: 14.1 µM [inhibitor, partial curve, poor fit]

Q: For CS(=O)(=O)N(Cc1nc2sc3c(c2c(=O)[nH]1)CCCC3)C1CCCCC1, which Potency is on record?
A: inconclusive: 0.316 µM [inhibitor, full curve, poor fit]

Q: Which Potency does the source give for c1ccc(-c2cnc(CSc3nnc4ccccn34)o2)cc1 here?
A: inconclusive: 1.3 µM [activator, partial curve, poor fit]

Q: For O=C(CN1C(=O)NC2(CCCC2)C1=O)OCCOc1ccccc1, which Potency is on record?
A: inconclusive: 6.31 µM [activator, single point]

Q: Which Potency does the source give for CCCN(CCC)CCNC(=O)C1CCN(Cc2nc(-c3ccc(Cl)cc3)oc2C)CC1 here?
A: active: 10.3 µM

Q: For Cn1c(=O)oc2cc(S(=O)(=O)Nc3ccccc3F)ccc21, which Potency is on record?
A: inconclusive: 3.16 µM [inhibitor, single point]

Q: With Cc1cccc(NC(=O)/C(C#N)=C/c2cn(CC(=O)NCc3ccco3)c3ccccc23)c1 as the compound, how does the Potency read?
A: inconclusive: 6.31 µM [inhibitor, partial curve, poor fit]

Q: Which Potency does the source give for CCCCNC(=S)Nc1ccc(F)cc1 here?
A: inactive

Q: With CC(C)CCn1c(=O)c2cccnc2n(CC(=O)Nc2ccccc2)c1=O as the compound, how does the Potency read?
A: inconclusive: 3.16 µM [activator, single point]

Q: Which Potency does the source give for CC(O)CNc1nc2c(c(=O)n(C)c(=O)n2C)n1Cc1cccc(Br)c1 (stereo not given) here?
A: inconclusive: 7.3 µM [inhibitor, partial curve]

Q: With Cc1ccc(C)c(NC(=O)COC(=O)c2ccc[n+]([O-])c2)c1 as the compound, how does the Potency read?
A: inactive

Q: Which Potency does the source give for CN(C(=O)NC1CC(=O)N(c2ccc3c(c2)OCCO3)C1)c1ccccc1 (stereo not given) here?
A: inconclusive: 35.5 µM [activator, single point]

Q: Which Potency does the source give for Cc1ccccc1CN1CCN(CC2CC3C=CC2C3)CC1 (stereo not given) here?
A: inconclusive: 11.2 µM [inhibitor, partial curve]

Q: With CN(C)c1cc[n+](CC(=O)c2ccc(-c3ccccc3)cc2)cc1 as the compound, how does the Potency read?
A: inconclusive: 14.6 µM [inhibitor, partial curve, poor fit]

Q: For CCOc1ccc(C(=O)c2cn(CC(=O)Nc3ccc(OC)cc3)c3cc4c(cc3c2=O)OCO4)cc1, which Potency is on record?
A: inactive

Q: With CCNS(=O)(=O)c1ccc(NC(=O)c2ccccc2OCC)cc1 as the compound, how does the Potency read?
A: inactive

Q: Which Potency does the source give for OC1CCCN(C(=S)Nc2ccc(SC(F)F)cc2)C1 (stereo not given) here?
A: inactive

Q: For CCOCC(=O)NC1CCc2cc(OC(=O)COCC)c(OC)c(OC)c2-c2ccc(SC)c(=O)cc21 (stereo not given), which Potency is on record?
A: inconclusive: 0.126 µM [inhibitor, full curve, poor fit]
